Test results published in the supplement of paper PMC12823440, “Inhibitors supercharge kinase turnover through native proteolytic circuits” (Nature, 2025).
Where a name gives a salt, the structure may show the parent alone. The list shows a part of the results. Hit calls seldom repeat between salt and free forms of one compound.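 Kinases, fused to nanoluciferase, were expressed in K562 cells; luminescence was measured every 4 h from 2 to 18 h as percent of control (DMSO = 100%, positive control = 0%). A time point is decreased if signal falls significantly (2 sigma). Hits were called by the authors by a rule that is not shown; the count of time points alone does not decide it.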

Amino acid sequences for entries named in this document (tags omitted). A change or cut given only in a name is not applied to a line headed by its entry.
UniProt Q8IWU2: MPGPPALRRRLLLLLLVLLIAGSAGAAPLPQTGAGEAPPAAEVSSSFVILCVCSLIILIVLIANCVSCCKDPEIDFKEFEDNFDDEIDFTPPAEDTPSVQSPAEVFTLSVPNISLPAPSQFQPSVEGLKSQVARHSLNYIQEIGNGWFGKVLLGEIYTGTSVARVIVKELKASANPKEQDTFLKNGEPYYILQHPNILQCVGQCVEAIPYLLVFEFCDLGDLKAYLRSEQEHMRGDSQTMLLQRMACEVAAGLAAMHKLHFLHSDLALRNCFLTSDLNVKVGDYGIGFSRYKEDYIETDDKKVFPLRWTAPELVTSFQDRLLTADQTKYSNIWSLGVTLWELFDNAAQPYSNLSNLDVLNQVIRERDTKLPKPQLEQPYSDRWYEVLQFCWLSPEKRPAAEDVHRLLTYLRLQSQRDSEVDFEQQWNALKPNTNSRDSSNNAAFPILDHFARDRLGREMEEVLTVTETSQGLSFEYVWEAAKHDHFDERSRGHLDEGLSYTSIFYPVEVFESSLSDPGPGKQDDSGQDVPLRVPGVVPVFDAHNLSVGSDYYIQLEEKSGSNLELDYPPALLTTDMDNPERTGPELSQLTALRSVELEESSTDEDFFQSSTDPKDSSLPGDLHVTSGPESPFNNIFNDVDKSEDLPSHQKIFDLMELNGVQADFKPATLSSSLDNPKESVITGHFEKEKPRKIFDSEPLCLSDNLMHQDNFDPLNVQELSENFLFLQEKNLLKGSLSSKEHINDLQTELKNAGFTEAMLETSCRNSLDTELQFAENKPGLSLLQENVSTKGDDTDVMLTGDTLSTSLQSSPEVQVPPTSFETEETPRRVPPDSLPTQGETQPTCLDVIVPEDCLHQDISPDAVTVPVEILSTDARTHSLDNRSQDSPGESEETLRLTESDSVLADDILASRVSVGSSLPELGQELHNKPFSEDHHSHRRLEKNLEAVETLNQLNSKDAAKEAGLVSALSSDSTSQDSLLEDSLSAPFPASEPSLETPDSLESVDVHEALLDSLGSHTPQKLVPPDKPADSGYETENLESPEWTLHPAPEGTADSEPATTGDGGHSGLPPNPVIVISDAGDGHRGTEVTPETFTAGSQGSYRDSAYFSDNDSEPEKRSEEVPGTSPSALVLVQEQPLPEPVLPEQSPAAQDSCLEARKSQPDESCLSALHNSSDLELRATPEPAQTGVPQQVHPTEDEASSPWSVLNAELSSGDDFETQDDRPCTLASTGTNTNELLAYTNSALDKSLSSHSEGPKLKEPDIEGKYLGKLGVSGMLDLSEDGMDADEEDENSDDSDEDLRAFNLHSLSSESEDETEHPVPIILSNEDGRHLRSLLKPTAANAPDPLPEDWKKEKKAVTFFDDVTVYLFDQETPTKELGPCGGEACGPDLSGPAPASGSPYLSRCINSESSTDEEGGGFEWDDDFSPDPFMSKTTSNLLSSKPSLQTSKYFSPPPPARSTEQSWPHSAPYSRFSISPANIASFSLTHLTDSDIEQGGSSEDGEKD
UniProt P07948: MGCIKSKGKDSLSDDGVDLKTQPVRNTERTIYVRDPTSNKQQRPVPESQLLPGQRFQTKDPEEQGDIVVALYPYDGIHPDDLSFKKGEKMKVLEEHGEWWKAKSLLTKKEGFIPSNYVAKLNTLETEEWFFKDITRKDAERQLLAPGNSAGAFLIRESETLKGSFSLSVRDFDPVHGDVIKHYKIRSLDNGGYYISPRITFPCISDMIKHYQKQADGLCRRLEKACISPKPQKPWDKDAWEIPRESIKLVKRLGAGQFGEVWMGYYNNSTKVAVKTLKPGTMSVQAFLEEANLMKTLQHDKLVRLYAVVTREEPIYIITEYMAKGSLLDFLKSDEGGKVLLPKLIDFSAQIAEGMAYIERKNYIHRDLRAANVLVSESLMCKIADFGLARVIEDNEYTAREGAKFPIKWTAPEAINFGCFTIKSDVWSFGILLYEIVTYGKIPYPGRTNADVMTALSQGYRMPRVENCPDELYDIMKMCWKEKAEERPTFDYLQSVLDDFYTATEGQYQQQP
UniProt Q12851: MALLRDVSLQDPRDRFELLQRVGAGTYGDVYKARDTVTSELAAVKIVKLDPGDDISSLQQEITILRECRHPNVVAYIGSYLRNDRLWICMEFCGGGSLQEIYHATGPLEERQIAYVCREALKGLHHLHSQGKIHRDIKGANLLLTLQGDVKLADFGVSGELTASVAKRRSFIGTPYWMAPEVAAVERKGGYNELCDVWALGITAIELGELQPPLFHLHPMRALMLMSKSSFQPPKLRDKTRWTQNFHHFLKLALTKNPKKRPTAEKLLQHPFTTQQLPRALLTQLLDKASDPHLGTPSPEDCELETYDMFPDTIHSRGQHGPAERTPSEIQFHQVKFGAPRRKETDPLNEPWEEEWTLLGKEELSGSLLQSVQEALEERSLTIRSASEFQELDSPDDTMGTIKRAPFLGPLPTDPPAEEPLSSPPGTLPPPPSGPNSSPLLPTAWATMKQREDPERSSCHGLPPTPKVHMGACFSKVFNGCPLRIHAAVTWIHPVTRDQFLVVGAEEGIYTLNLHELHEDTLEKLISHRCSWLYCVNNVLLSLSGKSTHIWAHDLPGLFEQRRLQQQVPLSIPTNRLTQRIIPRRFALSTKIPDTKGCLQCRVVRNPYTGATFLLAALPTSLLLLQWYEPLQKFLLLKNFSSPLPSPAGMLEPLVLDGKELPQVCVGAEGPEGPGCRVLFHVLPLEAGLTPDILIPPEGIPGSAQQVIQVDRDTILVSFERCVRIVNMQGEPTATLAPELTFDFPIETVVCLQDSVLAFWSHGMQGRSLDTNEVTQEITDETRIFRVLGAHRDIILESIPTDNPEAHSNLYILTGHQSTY
UniProt P28482, whole entry: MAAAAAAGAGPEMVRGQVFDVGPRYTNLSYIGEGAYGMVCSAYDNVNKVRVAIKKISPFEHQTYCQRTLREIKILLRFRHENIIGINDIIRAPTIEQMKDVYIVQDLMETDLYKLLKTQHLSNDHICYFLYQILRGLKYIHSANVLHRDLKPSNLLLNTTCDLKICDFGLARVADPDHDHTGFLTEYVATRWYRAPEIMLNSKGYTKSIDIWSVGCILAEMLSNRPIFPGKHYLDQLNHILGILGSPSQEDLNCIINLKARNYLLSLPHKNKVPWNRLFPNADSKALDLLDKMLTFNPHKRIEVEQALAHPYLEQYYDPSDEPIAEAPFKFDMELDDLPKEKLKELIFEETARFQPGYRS
UniProt P31152, whole entry: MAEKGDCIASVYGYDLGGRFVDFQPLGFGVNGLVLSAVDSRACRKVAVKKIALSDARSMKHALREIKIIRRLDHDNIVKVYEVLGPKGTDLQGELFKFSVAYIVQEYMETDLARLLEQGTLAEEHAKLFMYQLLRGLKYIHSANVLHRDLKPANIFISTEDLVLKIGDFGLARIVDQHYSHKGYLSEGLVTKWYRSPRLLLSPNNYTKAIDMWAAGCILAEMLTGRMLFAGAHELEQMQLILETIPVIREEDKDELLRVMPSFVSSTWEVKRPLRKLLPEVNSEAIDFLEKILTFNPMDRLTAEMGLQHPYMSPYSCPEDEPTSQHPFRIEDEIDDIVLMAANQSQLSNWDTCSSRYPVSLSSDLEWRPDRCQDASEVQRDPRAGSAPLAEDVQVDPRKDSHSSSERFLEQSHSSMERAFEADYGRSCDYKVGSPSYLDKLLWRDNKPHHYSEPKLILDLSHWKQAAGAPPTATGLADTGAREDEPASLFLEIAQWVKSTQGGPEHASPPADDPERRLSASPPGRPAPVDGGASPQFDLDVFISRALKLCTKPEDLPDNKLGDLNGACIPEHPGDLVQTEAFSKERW
UniProt P49137, whole entry, looked up: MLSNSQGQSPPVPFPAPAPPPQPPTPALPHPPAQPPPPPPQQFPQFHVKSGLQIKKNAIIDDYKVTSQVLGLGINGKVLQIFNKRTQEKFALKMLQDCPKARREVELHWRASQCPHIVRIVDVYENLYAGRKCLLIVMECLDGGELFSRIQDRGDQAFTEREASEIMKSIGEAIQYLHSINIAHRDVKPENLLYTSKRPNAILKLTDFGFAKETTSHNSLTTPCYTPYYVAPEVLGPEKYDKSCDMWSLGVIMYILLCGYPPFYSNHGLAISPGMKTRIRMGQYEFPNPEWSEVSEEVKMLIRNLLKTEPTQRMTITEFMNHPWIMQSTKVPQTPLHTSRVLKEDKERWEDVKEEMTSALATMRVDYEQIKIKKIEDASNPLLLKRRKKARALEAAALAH
UniProt Q9BUB5: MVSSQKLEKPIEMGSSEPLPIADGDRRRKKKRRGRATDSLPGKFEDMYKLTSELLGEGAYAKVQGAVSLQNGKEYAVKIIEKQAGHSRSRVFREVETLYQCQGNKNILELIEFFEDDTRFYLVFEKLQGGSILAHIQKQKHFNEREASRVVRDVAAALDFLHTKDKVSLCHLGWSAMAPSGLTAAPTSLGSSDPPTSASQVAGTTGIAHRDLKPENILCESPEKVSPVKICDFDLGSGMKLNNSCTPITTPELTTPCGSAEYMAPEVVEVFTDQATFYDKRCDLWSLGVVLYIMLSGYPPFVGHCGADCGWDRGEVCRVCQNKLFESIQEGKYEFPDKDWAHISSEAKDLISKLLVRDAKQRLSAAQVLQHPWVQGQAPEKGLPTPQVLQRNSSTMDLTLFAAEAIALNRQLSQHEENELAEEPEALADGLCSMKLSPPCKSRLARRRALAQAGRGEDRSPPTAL
UniProt Q16620, whole entry, looked up: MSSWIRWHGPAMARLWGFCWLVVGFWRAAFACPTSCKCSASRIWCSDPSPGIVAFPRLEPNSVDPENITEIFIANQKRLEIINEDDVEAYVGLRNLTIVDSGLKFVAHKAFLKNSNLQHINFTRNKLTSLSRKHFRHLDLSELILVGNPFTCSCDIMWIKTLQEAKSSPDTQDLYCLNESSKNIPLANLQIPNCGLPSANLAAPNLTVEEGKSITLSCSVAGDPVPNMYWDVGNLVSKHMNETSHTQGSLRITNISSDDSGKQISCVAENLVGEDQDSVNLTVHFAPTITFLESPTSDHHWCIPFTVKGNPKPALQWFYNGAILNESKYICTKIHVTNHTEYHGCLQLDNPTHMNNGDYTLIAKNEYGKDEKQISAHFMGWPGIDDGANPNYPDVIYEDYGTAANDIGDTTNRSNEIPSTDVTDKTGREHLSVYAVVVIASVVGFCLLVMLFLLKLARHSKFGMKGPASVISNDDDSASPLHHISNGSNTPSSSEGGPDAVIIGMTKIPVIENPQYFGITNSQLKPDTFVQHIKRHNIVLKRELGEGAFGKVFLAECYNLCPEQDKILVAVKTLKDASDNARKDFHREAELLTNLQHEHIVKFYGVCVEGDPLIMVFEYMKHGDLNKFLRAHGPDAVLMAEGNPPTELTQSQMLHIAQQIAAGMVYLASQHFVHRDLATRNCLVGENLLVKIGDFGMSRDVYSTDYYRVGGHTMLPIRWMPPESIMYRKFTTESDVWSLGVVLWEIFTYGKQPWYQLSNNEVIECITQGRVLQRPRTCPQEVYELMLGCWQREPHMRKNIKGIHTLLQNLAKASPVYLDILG

Experiments:
Assay in all cases: number of time points (of 5) at which kinase-Nluc abundance scored as decreased, DMSO-normalised (count); higher = more persistent destabilization
Conditions in all cases: K562; 2-18 h
LMTK2 = LMTK2 (UniProt Q8IWU2)
LYN = LYN (UniProt P07948)
MAP2K1 = MAP2K1 (UniProt Q02750)
MAP2K2 = MAP2K2 (UniProt P36507)
MAP4K2 = MAP4K2 (UniProt Q12851)
MAPK1 = MAPK1 (UniProt P28482)
MAPK4 = MAPK4 (UniProt P31152)
MAPKAPK2 = MAPKAPK2 (UniProt P49137)
MKNK1 = MKNK1 (UniProt Q9BUB5)
NTRK2 = NTRK2 (UniProt Q16620)

SMILES	number of time points (LMTK2)	number of time points (LYN)	number of time points (MAP2K1)	number of time points (MAP2K2)	number of time points (MAP4K2)	number of time points (MAPK1)	number of time points (MAPK4)	number of time points (MAPKAPK2)	number of time points (MKNK1)	number of time points (NTRK2)
CC(=O)NCC(=O)N1[C@@H]2CC[C@H]1c1ccc(Nc3ncc(C(F)(F)F)c(NC4CCC4)n3)cc12 (2.5 µM)	3	0	0	0	0	0	0	0	3	1
Cc1ccc(NC(=O)Nc2nnc(Sc3ncnc4cc(OCCCN5CCOCC5)ccc34)s2)cc1 (10 µM)	0	0	0	0	0	0	0	0	0	0
Cc1c(C(=O)N2CCOc3ccc(-c4ccc(N)nc4)cc3C2)ccc(S(C)(=O)=O)c1F (10 µM)	0	0	0	0	0	0	0	0	0	0
CCCn1cnc2c(NCc3ccccc3)nc(NC(CC)CO)nc21 (stereo not given) [Ca2+ channel agonist 1] (2.5 µM)	0	0	0	0	0	0	0	0	0	0
COc1ccc(COc2ccc(Cc3cnc(N)nc3N)cc2OC)cc1 (10 µM)	0	0	0	0	0	0	0	0	0	0
CN1CCN(c2ccc(C(=O)Nc3n[nH]c4ccc(Cc5cc(F)cc(F)c5)cc34)c(NC3CCOCC3)c2)CC1 [Entrectinib] (2.5 µM)	0	0	0	0	0	0	0	0	0	0
COc1ccc(Oc2cc(NCCC(F)(F)F)c3ncc(-c4ccc(C(=O)NC5CC5)c(C)c4)n3n2)c(F)c1F (2.5 µM)	0	0	0	0	0	0	0	0	0	0
CN1CCN(c2ccc(Nc3cc(-c4cccc(-n5ccc6cc(C7CC7)cc(F)c6c5=O)c4CO)cn(C)c3=O)nc2)CC1 (2.5 µM)	0	0	0	0	0	0	0	0	0	0
Nc1nc(N)c(N=O)c(OCC2CCCCC2)n1 (10 µM)	0	0	0	0	0	0	0	0	0	0
Cc1c[nH]c(/C=C2\C(=O)Nc3ccccc32)c1CCC(=O)O (10 µM)	0	0	0	0	0	0	0	0	0	0
COc1ccc(F)c(F)c1C(=O)c1cnc(NC2CCN(S(C)(=O)=O)CC2)nc1N (2.5 µM)	3	1	1	1	0	0	0	0	0	3
COc1c(Cl)cc2c([nH]c3cnccc32)c1NC(=O)c1cccnc1C (10 µM)	0	0	0	0	0	0	0	0	0	0
COc1cc(N2CCC(N)CC2)ccc1Nc1ncc(Cl)c(-c2c[nH]c3ccccc23)n1 (2.5 µM)	0	0	0	0	0	0	0	0	0	0
Cc1cc(C(=O)Nc2cccc(C(=O)Nc3cccc(C(F)(F)F)c3)c2)on1 (10 µM)	0	0	0	0	0	0	0	0	0	0
COc1cc(C)c(Sc2cnc(NC(=O)c3ccc(CNC(C)C(C)(C)C)cc3)s2)cc1C(=O)N1CCN(C(C)=O)CC1 (stereo not given) (2.5 µM)	0	0	0	0	0	0	0	0	0	0
C=CC(=O)N1CCC[C@@H](n2nc(-c3ccc(Oc4ccccc4)cc3)c(C(N)=O)c2N)C1 [Btk inhibitor 2] (10 µM)	0	0	0	0	0	0	0	0	0	0
O=c1oc2c(O)c(O)cc3c(=O)oc4c(O)c(O)cc1c4c23 [Ellagic acid] (10 µM)	0	0	0	0	0	0	0	0	0	0
COCCOc1cc2nccc(Nc3n[nH]c(C)c3C)c2cc1S(=O)(=O)C(C)(C)C [RIP2 kinase inhibitor 2] (2.5 µM)	0	0	0	0	0	0	0	0	0	0
N#Cc1ccc2[nH]c(O)c(-c3ccc(CN4CCOCC4)cn3)c2c1 (10 µM)	0	0	0	0	0	0	0	0	0	0
O=c1c(O)c(-c2ccc(O)c(O)c2)oc2cc(O)cc(O)c12 [Quercetin (dihydrate)] (10 µM)	0	0	0	0	0	0	0	0	1	0
C=CC(=O)N1CC[C@H](n2nc(C#Cc3cc(OC)cc(OC)c3)c3c(N)ncnc32)C1 [Futibatinib] (10 µM)	0	0	0	0	0	0	0	0	0	0
C[C@H](CN(C)C)Oc1nc(Nc2cc3cccc(Cl)c3cn2)cnc1C#N (10 µM)	0	0	0	0	0	0	0	0	0	0
O=C(/C=C/c1ccc(O)c(O)c1)c1ccc(O)cc1O [Butein] (10 µM)	2	0	0	0	0	0	0	0	4	1
C=CC(=O)N[C@H]1COC[C@H]1Nc1ncc2cc(-c3c(Cl)c(OC)cc(OC)c3Cl)c(=O)n(C)c2n1 (10 µM)	0	0	0	0	0	0	0	0	0	0
NS(=O)(=O)c1ccc(Nc2nc(OCC3CCCCC3)c3[nH]cnc3n2)cc1 (10 µM)	0	0	0	0	0	0	0	0	0	0
Nc1ncnc2c1c(-c1ccc(Oc3ccccc3)cc1)cn2C1CCCC1 (2.5 µM)	0	0	0	0	0	0	0	0	4	0

SMILES	number of time points (LMTK2)	number of time points (LYN)	number of time points (MAP2K1)	number of time points (MAP2K2)	number of time points (MAP4K2)	number of time points (MAPK1)	number of time points (MAPK4)	number of time points (MAPKAPK2)	number of time points (MKNK1)	number of time points (NTRK2)
O=C(Nc1cc(C(F)(F)F)ccc1N1CCN(Cc2ccccn2)CC1)c1ccc(-c2ccncc2)o1 (10 µM)	0	0	0	0	0	0	0	0	0	0
COc1cc(C(=O)NC2CCN(C)CC2)ccc1Nc1ncc2c(n1)N(C1CCCC1)CC(F)(F)C(=O)N2C (10 µM)	0	0	0	0	0	0	0	0	0	0
Cc1ccc2c(Nc3cccc(OC(F)(F)F)c3)nccc2c1Nc1ncccc1-c1ncnc2[nH]cnc12 (10 µM)	0	0	0	0	0	0	0	0	0	0
CN1CCC(Nc2ncc3ncnc(Nc4ccc(F)c(Cl)c4)c3n2)CC1 [Falnidamol] (10 µM)	0	0	0	0	0	0	0	0	0	0
COc1cc2ncnc(Nc3ccc(O)cc3)c2cc1OC (10 µM)	0	0	0	0	0	0	0	0	0	0
O=C1Cc2c([nH]c3ccc(Br)cc23)-c2ncccc2N1 [1-Azakenpaullone] (10 µM)	0	0	0	0	0	0	0	0	0	0
C[C@]1(O)C[C@@H](c2nc(-c3ccc4ccc(-c5ccccc5)nc4c3)c3c(N)nccn32)C1 [Linsitinib] (2.5 µM)	0	0	0	0	0	0	0	0	0	0
CN1CCN(C(=O)c2ccc(-c3ccc4c(C=O)c(O)ccc4c3)s2)CC1 (2.5 µM)	0	0	0	0	0	0	0	0	0	0
Cc1ccc(F)c(NC(=O)Nc2ccc(-c3cccc4[nH]nc(N)c34)cc2)c1 [Linifanib] (2.5 µM)	0	5	0	0	0	0	0	0	0	0
Cn1nc(C(C)(C)C)cc1NC(=O)Nc1ccc(Oc2ccncc2)cc1 (10 µM)	2	0	0	0	0	0	0	0	0	0
CC(C)(C)S(=O)(=O)c1cc2c(Nc3ccc4scnc4c3)ncnc2cc1OCCO (2.5 µM)	0	0	0	0	0	0	0	0	0	0
COc1cc(C=C(C#N)C(N)=O)cc(CSc2nc3ccccc3s2)c1O (10 µM)	0	0	0	0	0	0	0	0	0	0
O=C([O-])c1ccccc1O.[Na+] [Sodium Salicylate] (10 µM)	0	0	0	0	0	0	0	0	0	0
CCOc1ccn(-c2ccc(F)cc2)c(=O)c1C(=O)Nc1ccc(Oc2ccnc(N)c2Cl)c(F)c1 (10 µM)	0	0	0	0	0	0	0	0	0	1
CN(C)C[C@@H]1CCn2cc(c3ccccc32)C2=C(C(=O)NC2=O)c2cn(c3ccccc23)CCO1 [Ruboxistaurin (hydrochloride)] (10 µM)	0	0	0	0	0	0	0	0	0	0
CC(C)CC(=O)Nc1n[nH]c2c1CN(C(=O)C1CCN(C)CC1)C2(C)C (2.5 µM)	2	0	0	0	0	0	0	0	0	3
CC(C)(C)c1nc2c3cc[nH]c(=O)c3c3cc(F)ccc3c2[nH]1 [Pyridone 6] (10 µM)	0	0	0	0	0	0	0	0	0	0
Cc1cc(C)c(/C=C2\C(=O)Nc3ccccc32)[nH]1 [Semaxinib] (10 µM)	0	0	0	0	0	0	0	0	0	0
CC(C)(C#N)c1ccc(N2C(=O)OCc3cnc4ccc(-c5cnc6ccccc6c5)cc4c32)cc1 (2.5 µM)	0	0	0	0	0	0	0	0	0	0
Cc1ccc2c(Nc3ccc(Cl)cc3)nccc2c1Nc1ncccc1-c1ncnc2nc[nH]c12 [Raf inhibitor 1] (2.5 µM)	0	0	0	0	0	0	0	0	0	0
COc1nccc(-c2c(-c3ccc(F)cc3)ncn2C2CCC(O)CC2)n1 (stereo not given) (10 µM)	0	0	0	0	0	0	0	0	0	0
CN(C)CCOc1ccc(-c2nc(-c3ccncc3)c(-c3ccc4c(c3)CC/C4=N\O)[nH]2)cc1 (10 µM)	0	0	0	0	0	0	0	0	1	0
CN(c1ncccc1CNc1nc(Nc2ccc3c(c2)CC(=O)N3)ncc1C(F)(F)F)S(C)(=O)=O (2.5 µM)	2	0	0	0	0	0	0	0	0	3
O=C1c2ccccc2-c2n[nH]c3cccc1c23 (10 µM)	0	0	0	0	0	0	0	0	0	0
COc1cc(Oc2ccnc3cc(OC)c(OC)cc23)ccc1NC(=O)NC(C)c1nccs1 (stereo not given) (2.5 µM)	0	0	0	0	0	0	0	0	0	0
N#C/C(=C\c1ccc(O)c(O)c1)C(=O)NCc1ccccc1 (10 µM)	0	0	0	0	0	0	0	0	0	0

4 compounds from above, arranged by molecular weight, descending.
SMILES	number of time points (LMTK2)	number of time points (LYN)	number of time points (MAP2K1)	number of time points (MAP2K2)	number of time points (MAP4K2)	number of time points (MAPK1)	number of time points (MAPK4)	number of time points (MAPKAPK2)	number of time points (MKNK1)	number of time points (NTRK2)
CN1CCN(c2ccc(Nc3cc(-c4cccc(-n5ccc6cc(C7CC7)cc(F)c6c5=O)c4CO)cn(C)c3=O)nc2)CC1 (2.5 µM)	0	0	0	0	0	0	0	0	0	0
CN(C)CCOc1ccc(-c2nc(-c3ccncc3)c(-c3ccc4c(c3)CC/C4=N\O)[nH]2)cc1 (10 µM)	0	0	0	0	0	0	0	0	1	0
CN1CCC(Nc2ncc3ncnc(Nc4ccc(F)c(Cl)c4)c3n2)CC1 [Falnidamol] (10 µM)	0	0	0	0	0	0	0	0	0	0
O=C(/C=C/c1ccc(O)c(O)c1)c1ccc(O)cc1O [Butein] (10 µM)	2	0	0	0	0	0	0	0	4	1
